Experimental data reported in patent publication US20140289906A1, “Compositions Having Dicamba Decarboxylase Activity and Methods of Use” (priority 2013, published 2014).
Some results were stated once for a whole list of compounds, not compound by compound.

Assay: Saturation mutagenesis of SEQ ID NO:109: dicamba decarboxylation activity of point mutants (Table 7)
Conditions: point mutations of SEQ ID NO:109

Row | Molecule | dicamba decarboxylation activity compared to SEQ ID NO:109
1 | A328R: point mutation of SEQ ID NO:109 (protein, Dicamba decarboxylase variant clone DC.4.032) MAQGKVALEEHFAIPETLQDSAGFVPGDYWKELQHRLLDIQDTRLKLMDAHGIETMILSLNAPAVQAIPDRRKAIEIARRANDVLAEECAKRPDRFLAFAALPLQDPDAATEELQRCVNDLGFVGALVNGFSQEGDGQTPLYYDLPQYRPFWGEVEKLDVPFYLHPRNPLPQDSRIYDGHPWLLGPTWAFAQETAVHALRLMASGLFDEHPRLNIILGHMGEGLPYMMWRIDHRVAWVKLPPRYPAKRRFMDYFNENFHITTSGNFRTQTLIDAILEIGADRILFSTDWPFENIDHASDWFNATSIAEADRVKIGRTNARRLFKLDGR | more than 2.0 fold
2 | G27S: point mutation of SEQ ID NO:109 (protein, Dicamba decarboxylase variant clone DC.4.032) MAQGKVALEEHFAIPETLQDSAGFVPSDYWKELQHRLLDIQDTRLKLMDAHGIETMILSLNAPAVQAIPDRRKAIEIARRANDVLAEECAKRPDRFLAFAALPLQDPDAATEELQRCVNDLGFVGALVNGFSQEGDGQTPLYYDLPQYRPFWGEVEKLDVPFYLHPRNPLPQDSRIYDGHPWLLGPTWAFAQETAVHALRLMASGLFDEHPRLNIILGHMGEGLPYMMWRIDHRVAWVKLPPRYPAKRRFMDYFNENFHITTSGNFRTQTLIDAILEIGADRILFSTDWPFENIDHASDWFNATSIAEADRVKIGRTNARRLFKLDGA | more than 2.0 fold
3 | G27T: point mutation of SEQ ID NO:109 (protein, Dicamba decarboxylase variant clone DC.4.032) MAQGKVALEEHFAIPETLQDSAGFVPTDYWKELQHRLLDIQDTRLKLMDAHGIETMILSLNAPAVQAIPDRRKAIEIARRANDVLAEECAKRPDRFLAFAALPLQDPDAATEELQRCVNDLGFVGALVNGFSQEGDGQTPLYYDLPQYRPFWGEVEKLDVPFYLHPRNPLPQDSRIYDGHPWLLGPTWAFAQETAVHALRLMASGLFDEHPRLNIILGHMGEGLPYMMWRIDHRVAWVKLPPRYPAKRRFMDYFNENFHITTSGNFRTQTLIDAILEIGADRILFSTDWPFENIDHASDWFNATSIAEADRVKIGRTNARRLFKLDGA | more than 2.0 fold
4 | L38I: point mutation of SEQ ID NO:109 (protein, Dicamba decarboxylase variant clone DC.4.032) MAQGKVALEEHFAIPETLQDSAGFVPGDYWKELQHRLIDIQDTRLKLMDAHGIETMILSLNAPAVQAIPDRRKAIEIARRANDVLAEECAKRPDRFLAFAALPLQDPDAATEELQRCVNDLGFVGALVNGFSQEGDGQTPLYYDLPQYRPFWGEVEKLDVPFYLHPRNPLPQDSRIYDGHPWLLGPTWAFAQETAVHALRLMASGLFDEHPRLNIILGHMGEGLPYMMWRIDHRVAWVKLPPRYPAKRRFMDYFNENFHITTSGNFRTQTLIDAILEIGADRILFSTDWPFENIDHASDWFNATSIAEADRVKIGRTNARRLFKLDGA | more than 2.0 fold
5 | D42A: point mutation of SEQ ID NO:109 (protein, Dicamba decarboxylase variant clone DC.4.032) MAQGKVALEEHFAIPETLQDSAGFVPGDYWKELQHRLLDIQATRLKLMDAHGIETMILSLNAPAVQAIPDRRKAIEIARRANDVLAEECAKRPDRFLAFAALPLQDPDAATEELQRCVNDLGFVGALVNGFSQEGDGQTPLYYDLPQYRPFWGEVEKLDVPFYLHPRNPLPQDSRIYDGHPWLLGPTWAFAQETAVHALRLMASGLFDEHPRLNIILGHMGEGLPYMMWRIDHRVAWVKLPPRYPAKRRFMDYFNENFHITTSGNFRTQTLIDAILEIGADRILFSTDWPFENIDHASDWFNATSIAEADRVKIGRTNARRLFKLDGA | more than 2.0 fold
6 | D42M: point mutation of SEQ ID NO:109 (protein, Dicamba decarboxylase variant clone DC.4.032) MAQGKVALEEHFAIPETLQDSAGFVPGDYWKELQHRLLDIQMTRLKLMDAHGIETMILSLNAPAVQAIPDRRKAIEIARRANDVLAEECAKRPDRFLAFAALPLQDPDAATEELQRCVNDLGFVGALVNGFSQEGDGQTPLYYDLPQYRPFWGEVEKLDVPFYLHPRNPLPQDSRIYDGHPWLLGPTWAFAQETAVHALRLMASGLFDEHPRLNIILGHMGEGLPYMMWRIDHRVAWVKLPPRYPAKRRFMDYFNENFHITTSGNFRTQTLIDAILEIGADRILFSTDWPFENIDHASDWFNATSIAEADRVKIGRTNARRLFKLDGA | more than 2.0 fold
7 | D42S: point mutation of SEQ ID NO:109 (protein, Dicamba decarboxylase variant clone DC.4.032) MAQGKVALEEHFAIPETLQDSAGFVPGDYWKELQHRLLDIQSTRLKLMDAHGIETMILSLNAPAVQAIPDRRKAIEIARRANDVLAEECAKRPDRFLAFAALPLQDPDAATEELQRCVNDLGFVGALVNGFSQEGDGQTPLYYDLPQYRPFWGEVEKLDVPFYLHPRNPLPQDSRIYDGHPWLLGPTWAFAQETAVHALRLMASGLFDEHPRLNIILGHMGEGLPYMMWRIDHRVAWVKLPPRYPAKRRFMDYFNENFHITTSGNFRTQTLIDAILEIGADRILFSTDWPFENIDHASDWFNATSIAEADRVKIGRTNARRLFKLDGA | more than 2.0 fold
8 | G52E: point mutation of SEQ ID NO:109 (protein, Dicamba decarboxylase variant clone DC.4.032) MAQGKVALEEHFAIPETLQDSAGFVPGDYWKELQHRLLDIQDTRLKLMDAHEIETMILSLNAPAVQAIPDRRKAIEIARRANDVLAEECAKRPDRFLAFAALPLQDPDAATEELQRCVNDLGFVGALVNGFSQEGDGQTPLYYDLPQYRPFWGEVEKLDVPFYLHPRNPLPQDSRIYDGHPWLLGPTWAFAQETAVHALRLMASGLFDEHPRLNIILGHMGEGLPYMMWRIDHRVAWVKLPPRYPAKRRFMDYFNENFHITTSGNFRTQTLIDAILEIGADRILFSTDWPFENIDHASDWFNATSIAEADRVKIGRTNARRLFKLDGA | more than 2.0 fold
9 | N61A: point mutation of SEQ ID NO:109; FIG. 6, possibly SEQ ID NO:123 (protein, Dicamba decarboxylase variant clone DC.4.032) MAQGKVALEEHFAIPETLQDSAGFVPGDYWKELQHRLLDIQDTRLKLMDAHGIETMILSLAAPAVQAIPDRRKAIEIARRANDVLAEECAKRPDRFLAFAALPLQDPDAATEELQRCVNDLGFVGALVNGFSQEGDGQTPLYYDLPQYRPFWGEVEKLDVPFYLHPRNPLPQDSRIYDGHPWLLGPTWAFAQETAVHALRLMASGLFDEHPRLNIILGHMGEGLPYMMWRIDHRVAWVKLPPRYPAKRRFMDYFNENFHITTSGNFRTQTLIDAILEIGADRILFSTDWPFENIDHASDWFNATSIAEADRVKIGRTNARRLFKLDGA | more than 2.0 fold
10 | E16A: point mutation of SEQ ID NO:109 (protein, Dicamba decarboxylase variant clone DC.4.032) MAQGKVALEEHFAIPATLQDSAGFVPGDYWKELQHRLLDIQDTRLKLMDAHGIETMILSLNAPAVQAIPDRRKAIEIARRANDVLAEECAKRPDRFLAFAALPLQDPDAATEELQRCVNDLGFVGALVNGFSQEGDGQTPLYYDLPQYRPFWGEVEKLDVPFYLHPRNPLPQDSRIYDGHPWLLGPTWAFAQETAVHALRLMASGLFDEHPRLNIILGHMGEGLPYMMWRIDHRVAWVKLPPRYPAKRRFMDYFNENFHITTSGNFRTQTLIDAILEIGADRILFSTDWPFENIDHASDWFNATSIAEADRVKIGRTNARRLFKLDGA | greater than 1.8 fold
11 | P63V: point mutation of SEQ ID NO:109 (protein, Dicamba decarboxylase variant clone DC.4.032) MAQGKVALEEHFAIPETLQDSAGFVPGDYWKELQHRLLDIQDTRLKLMDAHGIETMILSLNAVAVQAIPDRRKAIEIARRANDVLAEECAKRPDRFLAFAALPLQDPDAATEELQRCVNDLGFVGALVNGFSQEGDGQTPLYYDLPQYRPFWGEVEKLDVPFYLHPRNPLPQDSRIYDGHPWLLGPTWAFAQETAVHALRLMASGLFDEHPRLNIILGHMGEGLPYMMWRIDHRVAWVKLPPRYPAKRRFMDYFNENFHITTSGNFRTQTLIDAILEIGADRILFSTDWPFENIDHASDWFNATSIAEADRVKIGRTNARRLFKLDGA | greater than 1.8 fold
12 | N214Q: point mutation of SEQ ID NO:109 (protein, Dicamba decarboxylase variant clone DC.4.032) MAQGKVALEEHFAIPETLQDSAGFVPGDYWKELQHRLLDIQDTRLKLMDAHGIETMILSLNAPAVQAIPDRRKAIEIARRANDVLAEECAKRPDRFLAFAALPLQDPDAATEELQRCVNDLGFVGALVNGFSQEGDGQTPLYYDLPQYRPFWGEVEKLDVPFYLHPRNPLPQDSRIYDGHPWLLGPTWAFAQETAVHALRLMASGLFDEHPRLQIILGHMGEGLPYMMWRIDHRVAWVKLPPRYPAKRRFMDYFNENFHITTSGNFRTQTLIDAILEIGADRILFSTDWPFENIDHASDWFNATSIAEADRVKIGRTNARRLFKLDGA | greater than 1.8 fold
13 | V235I: point mutation of SEQ ID NO:109 (protein, Dicamba decarboxylase variant clone DC.4.032) MAQGKVALEEHFAIPETLQDSAGFVPGDYWKELQHRLLDIQDTRLKLMDAHGIETMILSLNAPAVQAIPDRRKAIEIARRANDVLAEECAKRPDRFLAFAALPLQDPDAATEELQRCVNDLGFVGALVNGFSQEGDGQTPLYYDLPQYRPFWGEVEKLDVPFYLHPRNPLPQDSRIYDGHPWLLGPTWAFAQETAVHALRLMASGLFDEHPRLNIILGHMGEGLPYMMWRIDHRIAWVKLPPRYPAKRRFMDYFNENFHITTSGNFRTQTLIDAILEIGADRILFSTDWPFENIDHASDWFNATSIAEADRVKIGRTNARRLFKLDGA | greater than 1.8 fold
